Laboratory results published in PMC8041304, “Halogen Atoms in the Protein–Ligand System. Structural and Thermodynamic Studies of the Binding of Bromobenzotriazoles by the Catalytic Subunit of Human Protein Kinase CK2” (The Journal of Physical Chemistry. B, 2021).
Some entries of the source have several records that differ or are many. Only these are listed. There may be further records. Results that share an entry differ for a reason that is not stated; dose, time, organism, isomer or construct need not be as stated for each record.

By UniProt entry, the sequences of proteins in these tests, tags left out.
UniProt P68400, whole entry: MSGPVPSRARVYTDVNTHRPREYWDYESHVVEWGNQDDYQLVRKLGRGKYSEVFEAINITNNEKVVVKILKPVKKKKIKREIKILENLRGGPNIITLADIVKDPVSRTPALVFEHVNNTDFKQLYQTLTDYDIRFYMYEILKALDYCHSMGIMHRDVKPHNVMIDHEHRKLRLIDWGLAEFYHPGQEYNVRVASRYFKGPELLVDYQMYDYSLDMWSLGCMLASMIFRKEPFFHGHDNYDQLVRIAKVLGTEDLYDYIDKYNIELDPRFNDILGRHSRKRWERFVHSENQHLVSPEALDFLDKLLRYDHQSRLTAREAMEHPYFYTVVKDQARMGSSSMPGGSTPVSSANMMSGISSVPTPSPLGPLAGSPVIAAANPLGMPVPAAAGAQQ

Molecular target: hCK2α (Homo sapiens, UniProt P68400)
Experiment: Isothermal titration calorimetry (MicroCal iTC200), reverse titration
Type: binding
Details: ΔSrt + ΔSHE(Ts) + ΔSother = 0

Brc1cc2[nH]nnc2c(Br)c1Br [4,5,6-Br3Bt]
ΔSother, entropy change assigned to all other processes accompanying ligand binding: 6 ± 30 J∙mol-1∙K-1 and relatively minor
